# Measurements as given in PubChem BioAssay AID493014 (National Center for Advancing Translational Sciences (NCATS), 2011).
# Some of the results follow. Shown are side measurements of this screen, not its main read-out; they come without a call. Most of these compounds were active or inconclusive in the main read-out, so they are no random draw. The note in brackets gives the kind of curve behind each potency; many fits are weak.
# Experiment: qHTS Assay to Find Inhibitors of Chronic Active B-Cell Receptor Signaling
# Conditions: ABC-DLBCL IkBa-CBG/CBR reporter, luminescence ratio (green luciferase fused to IkBa over red control in TMD8 lymphoma cells), 4 h
# Summary of the method: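 Compounds up to 46 uM were incubated four hours with TMD8 cells whose green CBG68 luciferase is fused to IkappaBalpha; red CBR luminescence normalised the signal, and concentration-effect curves were fitted to fusion, red and ratio data.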
# [1] = measured here: CBR red luminescence, cell number
# [2] = measured here: IkBa-CBG green luminescence
Structure (SMILES),AC50 [1],AC50 [2]
COCCN1Cc2cccc(C(=O)Nc3ccc4c(c3)OCCO4)c2C1=O,"2.91 µM [rising, full curve, poor fit]",
COc1ccc(C(=O)CC(=O)C(=O)Nc2ccc(Cl)cc2)cc1,"4.47 µM [falling, full curve]",
COc1cc(C(O)P(=O)(OCC(C)C)c2ccc(N(C)C)cc2)cc(OC)c1OC (stereo not given),"1.26 µM [rising, full curve, poor fit]",
CCCN(CC(=O)Nc1ccccc1OC)C(=O)c1cc(-c2cccs2)nn1-c1ccccc1,"20.6 µM [falling, partial curve, poor fit]",
Cc1ccccc1CC(=O)N1CCCC(CCC(=O)N2CCN(c3ccccn3)CC2)C1 (stereo not given),"35.5 µM [falling, single point]",
Cc1c(NS(=O)(=O)c2cccc(C(=O)N3CCC(C(N)=O)CC3)c2)c(=O)n(-c2ccccc2)n1C,"29.1 µM [rising, single point]",
CC(C)Cc1ccc(C(=O)NCCOc2ccccc2)o1,"1 µM [rising, full curve, poor fit]",
C=C1CCC[C@]2(C)C[C@H]3OC(=O)C(CNCC(C)C)[C@H]3CC12 (stereo not given in full),"17.8 µM [falling, partial curve]","35.5 µM [rising, partial curve, poor fit]"
NC(=O)Nc1ccccc1C(=O)Nc1ccc2ccccc2c1,"31.6 µM [falling, partial curve, poor fit]",
COc1ccc(OC)c(NC(=O)c2cccnc2Sc2cc(C)ccc2C)c1,"6.51 µM [rising, partial curve, poor fit]",
CCc1nnc(NC(=O)C2Cc3ccccc3C(=O)O2)s1 (stereo not given),"29.1 µM [rising, single point]",
O=C(Nc1ccc(-c2csc(Nc3cccc(C(F)(F)F)c3)n2)cc1)c1cccc(C(F)(F)F)c1,"35.5 µM [falling, single point]",
COc1ccc(Nc2nc(N)nc(CSc3nccn3C)n2)cc1,"17.8 µM [falling, partial curve, poor fit]",
CCOc1ccccc1NS(=O)(=O)c1c(C)noc1C,"11.2 µM [rising, partial curve]",
CCc1ccc(-c2nnn(CC(=O)N(C3CCCC3)C3CCS(=O)(=O)C3)n2)cc1 (stereo not given),"2.91 µM [falling, partial curve, poor fit]",
O=C(NCc1cccnc1)C1CCN(c2ccc(S(=O)(=O)N3CCOCC3)cc2Cl)CC1,"3.16 µM [rising, single point]",
CCOC(=O)c1cccc(NC(=O)CCc2nc(-c3ccccc3F)no2)c1,"3.16 µM [rising, partial curve, poor fit]",
Cc1ccccc1C(=O)N/N=C/c1ccccn1,"11.6 µM [falling, partial curve]",
CC1(C)N(O)CC(c2cccs2)=[N+]1[O-],"29.1 µM [falling, partial curve, poor fit]",
COc1ccc(OC)c(NC(=O)CN(c2ccc(C)cc2)S(=O)(=O)c2c(C)n[nH]c2C)c1,"3.55 µM [falling, full curve]",

Structure (SMILES),AC50 [1],AC50 [2]
Cc1cc(/C=N/NC(N)=S)c(C)n1-c1ccc(Cl)cc1,"18.4 µM [falling, single point]","18.4 µM [falling, single point]"
Cc1ccc(C(=O)CC(=O)c2ccccc2)cc1,"3.55 µM [rising, partial curve, poor fit]",
O=C(C1=C[C@H](c2csc3ccccc23)C[C@H](OCCCCO)O1)N1CCN(Cc2ccccc2)CC1,"8.91 µM [falling, partial curve, poor fit]",
C#CCOCCOCCOCCNc1nc(N2CCN(C(=O)CCCCCCCCCCNC(=O)[C@H]([C@@H](C)CC)n3cc(CCCCN=C(N)N)nn3)CC2)nc(N2CCN(C(=O)CCCCCCCCCCNC(=O)[C@H](CO)n3cc(CCCCCN)nn3)CC2)n1,"23.1 µM [rising, partial curve]","20.6 µM [falling, partial curve, poor fit]"
Cn1c(C(=O)Nc2ccc3c(c2)OCO3)cc2sccc21,"14.1 µM [falling, single point]",
Cc1onc(-c2c(F)cccc2Cl)c1C(=O)Nc1cccc(S(=O)(=O)N2CCOCC2)c1,"6.51 µM [rising, partial curve, poor fit]","5.17 µM [falling, single point]"
COc1ccc2ccccc2c1/C=N/O,"20 µM [falling, partial curve, poor fit]",
Cn1cc(CN2CCc3c([nH]c4ccccc34)C2C(C)(C)C)cn1 (stereo not given),"20 µM [falling, partial curve, poor fit]",
Cc1cc(C(F)F)n2ncc(C(=O)NC3CCCCCC3)c2n1,"1.84 µM [rising, partial curve, poor fit]",
Cn1cc(C(c2ccccn2)c2cn(C)c3ccccc23)c2ccccc21,"18.4 µM [falling, single point]",
CNc1nc(Nc2ccc(C)c(Cl)c2)nc(N)c1[N+](=O)[O-],"16.4 µM [rising, partial curve, poor fit]",
Cc1c(/C(O)=C2\C(=O)C(=O)N(CCN(C)C)C2c2ccco2)cnn1-c1ccccc1 (stereo not given),"4.61 µM [rising, full curve, poor fit]",
CC(=O)NC(=S)Nc1ccc(S(=O)(=O)N2CCOCC2)cc1,"7.08 µM [rising, partial curve, poor fit]",
Cc1ccc(NC(=O)c2cc(S(=O)(=O)N3CCCCCC3)ccc2F)cc1F,"6.31 µM [falling, partial curve]",
O=C(/C=C/c1ccccc1Cl)Nc1cccc(O)c1,"15.8 µM [falling, partial curve]",
C/C(Cn1cnc([N+](=O)[O-])n1)=N\NC(=O)c1ccccc1O,"3.55 µM [falling, full curve, poor fit]",
Fc1ccccc1COc1ccc(/C=N/NC(=S)NCc2ccccc2)cc1,"20.6 µM [rising, partial curve, poor fit]",
CCNC(=S)NNC(=O)c1cc(-c2cccc(OC)c2)nc2ccccc12,"18.4 µM [falling, partial curve]",
C[C@@]12C(=O)Nc3ccc(Br)cc3C(=O)N1[C@H]1c3ccccc3OC[C@@H]1[C@@H]2c1ccccc1,"20.6 µM [falling, single point]","3.26 µM [rising, full curve, poor fit]"
Cc1cc(C(=O)Nc2cccc(-c3ccc(N4CCOCC4)nn3)c2)ccc1[N+](=O)[O-],"25.9 µM [falling, single point]",

Structure (SMILES),AC50 [1],AC50 [2]
N/C(=N\NS(=O)(=O)c1cc(C(F)(F)F)cc(C(F)(F)F)c1)c1ccccn1,"20 µM [rising, single point]",
CCCCCCNC(=O)c1cc(-c2ccco2)nc2ccccc12,,"20.6 µM [rising, partial curve, poor fit]"
COc1ccc(OC)c(/C=N/NC(=O)CCCC(=O)Nc2cccc(Br)c2)c1,"22.4 µM [falling, single point]",
COCCNC(=O)c1onc(CSc2cc(C)cc(C)c2)c1C(=O)O,"31.6 µM [falling, single point]",
Cc1c(-c2ccccc2)[n+](=O)c(-c2ccco2)c(C)n1[O-],"6.51 µM [falling, single point]","6.51 µM [rising, partial curve, poor fit]"
CC(=O)c1ccc(N2CCC(c3cc(-c4ccc(Cl)cc4Cl)n[nH]3)CC2)c([N+](=O)[O-])c1,"11.2 µM [falling, partial curve, poor fit]","11.2 µM [rising, partial curve, poor fit]"
CN(C)c1ccc(/C=C2\SC(=O)N(CCc3nnc(N)s3)C2=O)cc1,"2.82 µM [falling, partial curve]",
O=c1cc(CSc2nnnn2-c2ccccc2)nc(Nc2ccc(F)cc2)[nH]1,"0.291 µM [rising, full curve, poor fit]",
O=C(COc1ccc(Br)cc1)Nc1ccc(S(=O)(=O)Nc2ccccn2)cc1,"35.5 µM [falling, single point]",
COc1ccc(C2=NOC(CNC(N)=S)C2)cc1 (stereo not given),"35.5 µM [falling, single point]",
N#Cc1ccc(NC(=O)c2cccs2)nc1,"15.8 µM [falling, single point]",
O=C(Nc1ccc(Cl)c(Cl)c1)Nc1ccccc1O,"5.01 µM [falling, full curve]",
CCOc1ccc(CCNC(=O)c2ccc(CSCc3ccccc3C)o2)cc1OCC,"11.2 µM [falling, single point]",
Cc1ccc(C(=O)OCc2nc(N)nc(Nc3ccccc3C)n2)cc1,,"29.1 µM [falling, partial curve, poor fit]"
COc1cc(OC)c2c(c1)OC(c1ccc(OC)c(OC)c1)C(O)C2=O (stereo not given),"5.8 µM [rising, full curve, poor fit]",
COCC(=O)Nc1ccc(N(C)C)cc1,"3.66 µM [rising, partial curve, poor fit]",
COc1ccc(-c2cc(C(F)(F)F)n3nc(C(=O)NCc4ccco4)cc3n2)cc1,,"12.6 µM [falling, partial curve, poor fit]"
C[C@@H](C(=O)NCCc1ccc(F)cc1)N1C(=O)N2CCc3c([nH]c4ccccc34)[C@@]2(C)C1=O,"35.5 µM [falling, single point]",

# Three structures already listed, sorted by number of heavy atoms, descending.
Structure (SMILES),AC50 [1],AC50 [2]
C[C@@H](C(=O)NCCc1ccc(F)cc1)N1C(=O)N2CCc3c([nH]c4ccccc34)[C@@]2(C)C1=O,"35.5 µM [falling, single point]",
N/C(=N\NS(=O)(=O)c1cc(C(F)(F)F)cc(C(F)(F)F)c1)c1ccccn1,"20 µM [rising, single point]",
COc1ccc(C2=NOC(CNC(N)=S)C2)cc1 (stereo not given),"35.5 µM [falling, single point]",
